B1: HNRNPR (protein, UniProt O43390 2-633, looked up)
Heterogeneous nuclear …: ANQVNGNAVQLKEEEEPMDTSSVTHTEHYKTLIEAGLPQKVAERLDEIFQTGLVAYVDLDERAIDALREFNEEGALSVLQQFKESDLSHVQNKSAFLCGVMKTYRQREKQGSKVQESTKGPDEAKIKALLERTGYTLDVTTGQRKYGGPPPDSVYSGVQPGIGTEVFVGKIPRDLYEDELVPLFEKAGPIWDLRLMMDPLSGQNRGYAFITFCGKEAAQEAVKLCDSYEIRPGKHLGVCISVANNRLFVGSIPKNKTKENILEEFSKVTEGLVDVILYHQPDDKKKNRGFCFLEYEDHKSAAQARRRLMSGKVKVWGNVVTVEWADPVEEPDPEVMAKVKVLFVRNLATTVTEEILEKSFSEFGKLERVKKLKDYAFVHFEDRGAAVKAMDEMNGKEIEGEEIEIVLAKPPDKKRKERQAARQASRSTAYEDYYYHPPPRMPPPIRGRGRGGGRGGYGYPPDYYGYEDYYDDYYGYDYHDYRGGYEDPYYGYDDGYAVRGRGGGRGGRGAPPPPRGRGAPPPRGRAGYSQRGAPLGPPRGSRGGRGGPAQQQRGRGSRGSRGNRGGNVGGKRKADGYNQPDSKRRQTNNQQNWGSQPIAQQPLQQGGDYSGNYGYNNDNQEFYQDTYGQQWK
B2: NOL10 (protein, UniProt Q9BSC4 1-688, looked up)
Nucleolar protein 10: MQVSSLNEVKIYSLSCGKSLPEWLSDRKKRALQKKDVDVRRRIELIQDFEMPTVCTTIKVSKDGQYILATGTYKPRVRCYDTYQLSLKFERCLDSEVVTFEILSDDYSKIVFLHNDRYIEFHSQSGFYYKTRIPKFGRDFSYHYPSCDLYFVGASSEVYRLNLEQGRYLNPLQTDAAENNVCDINSVHGLFATGTIEGRVECWDPRTRNRVGLLDCALNSVTADSEINSLPTISALKFNGALTMAVGTTTGQVLLYDLRSDKPLLVKDHQYGLPIKSVHFQDSLDLILSADSRIVKMWNKNSGKIFTSLEPEHDLNDVCLYPNSGMLLTANETPKMGIYYIPVLGPAPRWCSFLDNLTEELEENPESTVYDDYKFVTKKDLENLGLTHLIGSPFLRAYMHGFFMDIRLYHKVKLMVNPFAYEEYRKDKIRQKIEETRAQRVQLKKLPKVNKELALKLIEEEEEKQKSTWKKKVKSLPNILTDDRFKVMFENPDFQVDEESEEFRLLNPLVSKISEKRKKKLRLLEQQELREKEEEEEPEGKPSDAESSESSDDEKAWVEEVRKQRRLLQQEEKVKRQERLKEDQQTVLKPQFYEIKAGEEFRSFKDSATKQKLMNKTLEDRLKIEAKNGTLSVSDTTVGSKQLTFTLKRSEQQKKQQEAEKLHRQERKRLRRSAGHLKSRHKRGRSFH
B3: UTP18 (protein, UniProt Q9Y5J1 1-556, looked up)
U3 small nucleolar …: MPPERRRRMKLDRRTGAKPKRKPGMRPDWKAGAGPGGPPQKPAPSSQRKPPARPSAAAAAIAVAAAEEERRLRQRNRLRLEEDKPAVERCLEELVFGDVENDEDALLRRLRGPRVQEHEDSGDSEVENEAKGNFPPQKKPVWVDEEDEDEEMVDMMNNRFRKDMMKNASESKLSKDNLKKRLKEEFQHAMGGVPAWAETTKRKTSSDDESEEDEDDLLQRTGNFISTSTSLPRGILKMKNCQHANAERPTVARISSVQFHPGAQIVMVAGLDNAVSLFQVDGKTNPKIQSIYLERFPIFKACFSANGEEVLATSTHSKVLYVYDMLAGKLIPVHQVRGLKEKIVRSFEVSPDGSFLLINGIAGYLHLLAMKTKELIGSMKINGRVAASTFSSDSKKVYASSGDGEVYVWDVNSRKCLNRFVDEGSLYGLSIATSRNGQYVACGSNCGVVNIYNQDSCLQETNPKPIKAIMNLVTGVTSLTFNPTTEILAIASEKMKEAVRLVHLPSCTVFSNFPVIKNKNISHVHTMDFSPRSGYFALGNEKGKALMYRLHHYSDF
B4: PAXBP1 (protein, UniProt Q9Y5B6 1-917, looked up)
PAX3- and PAX7-binding …: MFRKARRVNVRKRNDSEEEERERDEEQEPPPLLPPPGTGEEAGPGGGDRAPGGESLLGPGPSPPSALTPGLGAEAGGGFPGGAEPGNGLKPRKRPRENKEVPRASLLSFQDEEEENEEVFKVKKSSYSKKIVKLLKKEYKEDLEKSKIKTELNSSAESEQPLDKTGHVKDTNQEDGVIISEHGEDEMDMESEKEEEKPKTGGAFSNALSSLNVLRPGEIPDAAFIHAARKKRQMARELGDFTPHDNEPGKGRLVREDENDASDDEDDDEKRRIVFSVKEKSQRQKIAEEIGIEGSDDDALVTGEQDEELSRWEQEQIRKGINIPQVQASQPAEVNMYYQNTYQTMPYGSSYGIPYSYTAYGSSDAKSQKTDNTVPFKTPSNEMTPVTIDLVKKQLKDRLDSMKELHKTNRQQHEKHLQSRVDSTRAIERLEGSSGGIGERYKFLQEMRGYVQDLLECFSEKVPLINELESAIHQLYKQRASRLVQRRQDDIKDESSEFSSHSNKALMAPNLDSFGRDRALYQEHAKRRIAEREARRTRRRQAREQTGKMADHLEGLSSDDEETSTDITNFNLEKDRISKESGKVFEDVLESFYSIDCIKSQFEAWRSKYYTSYKDAYIGLCLPKLFNPLIRLQLLTWTPLEAKCRDFENMLWFESLLFYGCEEREQEKDDVDVALLPTIVEKVILPKLTVIAENMWDPFSTTQTSRMVGITLKLINGYPSVVNAENKNTQVYLKALLLRMRRTLDDDVFMPLYPKNVLENKNSGPYLFFQRQFWSSVKLLGNFLQWYGIFSNKTLQELSIDGLLNRYILMAFQNSEYGDDSIKKAQNVINCFPKQWFMNLKGERTISQLENFCRYLVHLADTIYRNSIGCSDVEKRNARENIKQIVKLLASVRALDHAMSVASDHNVKEFKSLIEGK
B5: SLC25A6 (protein, UniProt P12236 1-298, looked up)
ADP/ATP translocase 3: MTEQAISFAKDFLAGGIAAAISKTAVAPIERVKLLLQVQHASKQIAADKQYKGIVDCIVRIPKEQGVLSFWRGNLANVIRYFPTQALNFAFKDKYKQIFLGGVDKHTQFWRYFAGNLASGGAAGATSLCFVYPLDFARTRLAADVGKSGTEREFRGLGDCLVKITKSDGIRGLYQGFSVSVQGIIIYRAAYFGVYDTAKGMLPDPKNTHIVVSWMIAQTVTAVAGVVSYPFDTVRRRMMMQSGRKGADIMYTGTVDCWRKIFRDEGGKAFFKGAWSNVLRGMGGAFVLVLYDELKKVI
B6: HNRNPA2B1 (protein, UniProt P22626 1-353, looked up)
Heterogeneous nuclear …: MEKTLETVPLERKKREKEQFRKLFIGGLSFETTEESLRNYYEQWGKLTDCVVMRDPASKRSRGFGFVTFSSMAEVDAAMAARPHSIDGRVVEPKRAVAREESGKPGAHVTVKKLFVGGIKEDTEEHHLRDYFEEYGKIDTIEIITDRQSGKKRGFGFVTFDDHDPVDKIVLQKYHTINGHNAEVRKALSRQEMQEVQSSRSGRGGNFGFGDSRGGGGNFGPGPGSNFRGGSDGYGSGRGFGDGYNGYGGGPGGGNFGGSPGYGGGRGGYGGGGPGYGNQGGGYGGGYDNYGGGNYGSGNYNDFGNYNQQPSNYGPMKSGNFGGSRNMGGPYGGGNYGPGGSGGSGGYGGRSRY
B7: TEX10 (protein, UniProt Q9NXF1 1-929, looked up)
Testis-expressed protein 10: MTKKRKRQHDFQKVKLKVGKKKPKLQNATPTNFKTKTIHLPEQLKEDGTLPTNNRKLNIKDLLSQMHHYNAGVKQSALLGLKDLLSQYPFIIDAHLSNILSEVTAVFTDKDANVRLAAVQLLQFLAPKIRAEQISPFFPLVSAHLSSAMTHITEGIQEDSLKVLDILLEQYPALITGRSSILLKNFVELISHQQLSKGLINRDRSQSWILSVNPNRRLTSQQWRLKVLVRLSKFLQALADGSSRLRESEGLQEQKENPHATSNSIFINWKEHANDQQHIQVYENGGSQPNVSSQFRLRYLVGGLSGVDEGLSSTENLKGFIEIIIPLLIECWVEAVPPQLATPVGNGIEREPLQVMQQVLNIISLLWKLSKQQDETHKLESWLRKNYLIDFKHHFMSRFPYVLKEITKHKRKEPNKSIKHCTVLSNNIDHLLLNLTLSDIMVSLANASTLQKDCSWIEMIRKFVTETLEDGSRLNSKQLNRLLGVSWRLMQIQPNREDTETLIKAVYTLYQQRGLILPVRTLLLKFFSKIYQTEELRSCRFRYRSKVLSRWLAGLPLQLAHLGSRNPELSTQLIDIIHTAAARANKELLKSLQATALRIYDPQEGAVVVLPADSQQRLVQLVYFLPSLPADLLSRLSRCCIMGRLSSSLAAMLIGILHMRSSFSGWKYSAKDWLMSDVDYFSFLFSTLTGFSKEELTWLQSLRGVPHVIQTQLSPVLLYLTDLDQFLHHWDVTEAVFHSLLVIPARSQNFDILQSAISKHLVGLTVIPDSTAGCVFGVICKLLDHTCVVSETLLPFLASCCYSLLYFLLTIEKGEAEHLRKRDKLWGVCVSILALLPRVLRLMLQSLRVNRVGPEELPVVGQLLRLLLQHAPLRTHMLTNAILVQQIIKNITTLKSGSVQEQWLTDLHYCFNVYITGHPQGPSALATVY

Tested on: BAF complex subunits and histone proteins
Experiment: Mass spectrometry proteomics of purified HA-SS18 WT and HA-SS18-SSX1 complexes (Tables 5A-5E)
Parameters: species or system human
[1] = HA-SS18SSX1_CHR_peptides: protein identified in the HA-SS18-SSX1 purification from solubilized chromatin (CHR), HEK-293T
[2] = HA-SS18SSX1_NE_peptides: protein co-purified with HA-SS18-SSX1 BAF complexes from soluble nuclear extract (NE), HEK-293T cells
[3] = HA-SS18WT_CHR_peptides: HA-SS18 WT purification from nuclease-treated solubilized chromatin (CHR), HEK-293T, label = protein identified
[4] = HA-SS18WT_NE_peptides: proteins co-purified with HA-SS18 WT from nuclear extract (NE), HEK-293T
[5] = HA-SS18SSX1_NE_peptides (Table 5B), HA-SS18-SSX1 BAF complex purification from soluble nuclear extract, HEK-293T
[6] = HA-SS18SSX1 purification, NE (soluble nuclear extract) fraction, HEK-293T, peptides per identified protein
[7] = HA-SS18WT_NE_peptides: HA-SS18 WT complexes purified from nuclear extract (NE), HEK-293T, label = protein identified (Gene Symbol)
[8] = HA-SS18WT_CHR_peptides: protein identified in HA-SS18 WT BAF complex purification from nuclease-treated solubilized chromatin (CHR), HEK-293T

Molecule	Total (total peptides) [1]	Unique (unique peptides) [1]	Total (peptides) [2]	Unique (peptides) [2]	Total (peptides) [3]	Unique (peptides) [3]	Total (peptides) [4]	Unique (peptides) [4]	Total (peptides) [5]	Unique (peptides) [5]	Total (total peptides) [6]	Unique (unique peptides) [6]	Total (peptides) [7]	Unique (peptides) [7]	Total (total peptides) [8]	Unique (unique peptides) [8]
B1	9	9	1	1	5	5	1	1	–	–	–	–	–	–	–	–
B2	9	9	–	–	5	5	–	–	–	–	–	–	–	–	–	–
B3	9	8	–	–	5	4	2	2	1	1	–	–	–	–	–	–
B4	9	8	–	–	6	6	–	–	–	–	12	12	10	9	–	–
B5	9	8	–	–	–	–	–	–	–	–	31	14	41	13	1	1
B6	9	8	–	–	–	–	–	–	–	–	–	–	–	–	–	–
B7	8	8	–	–	5	5	–	–	–	–	4	4	3	3	–	–

— patent US20250283871A1, “COMPOSITIONS AND METHODS FOR MODULATING THE INTERACTION BETWEEN SS18-SSX FUSION ONCOPROTEIN AND NUCLEOSOMES” (Dana-Farber Cancer Institute, Inc., priority 2020, published 2025)
